In patent US20200080052A1, “METHOD OF REDUCING CHROMOSOME SEGREGATION ERROR IN CELLS OF THE EARLY EMBRYO” (CENTRE HOSPITALIER DE L'UNIVERSITÉ DE MONTRÉAL, priority 2018, published 2020):

Tested on: mouse embryos
Assay: Cytoplasmic removal and live imaging of H2B:RFP-GAP43:GFP embryos (mitosis duration vs cell volume)
Format: cell-based
Conditions: 10 nM nocodazole
Method: All micromanipulations were performed on a Leica™ DM14000 inverted microscope fitted with Narashige micromanipulators. […] Embryos where thoroughly washed in over a dozen drops of M2 media prior to transfer and incubation in equilibrated KSOM medium for at least 2 hours prior to imaging to allow them to recover from the cytoplasmic removal procedure. Microinjections were performed as described previously (Nakagawa and FitzHarris, 2016; Vázquez-Diez and FitzHarris, 2018; Vázquez-Diez et al., 2016). cRNA was synthesized using mMessenger Machine kit (Ambion) as previously (Nakagawa et al., 2017; Vázquez-Diez et al., 2018), from the following plasmids; pRN4-H2B:RFP, psC2-GAP43:GFP, MajSatTALE:mClover (pTALYM3B15)(Miyanari et al., 2013).
All imaging was performed on a Leica™ SP8 confocal microscope with HyD detectors. For live imaging embryos were placed in a heated top-stage incubator with CO2 supply and imaged with a 20×0.75 NA objective as previously described (Vázquez-Diez et al., 2016). […]
All image analysis was performed using Fiji software. […] Mad2 Immunofluorescence was quantified by subtracting nuclear envelope and background maximum grey values. To calculate cell volume for each cell at metaphase, areas delineated by the cell membrane (GAP43:GFP signal) were manually traced and measured at each Z-slice, the sum of the areas was multiplied by the step size (2 μm). […]

COC(=O)Nc1nc2ccc(C(=O)c3cccs3)cc2[nH]1 [nocodazole]
correlation of mitosis duration and cell volume (r) (2-4C division, control r=−0.11): −0.17 | correlation of mitosis duration and cell volume (r) (16-32C division, control r=0.33): −0.24
